According to patent publication US20230303647A1, “CYCLIC CHEMERIN-9 DERIVATIVES” (priority 2020, published 2023):
For some of these results: At least one structure is not confirmed: it was looked up by name or label, or the drawing left a doubt. Some entries share one result that the patent states for a list of compounds. Where a SMILES comes first, the peptide text is derived from it. Bridges are numbered along the chain shown (N, C = ends). [ ]: non-standard residue; d: D form. The star is where a group is joined. X1 = CN(C)c1ccc2c(-c3cc(C(=O)*)ccc3C(=O)[O-])c3ccc(=[N+](C)C)cc-3oc2c1; PEG4 = NCCOCCOCCOCCOCCC(=O)O; d(hCys) = N[C@H](CCS)C(=O)O

Key:
[1] = Plasma stability assay of Tam-labeled peptides
CMKLR1 = molecular target: T1, CMKLR1 (Homo sapiens, UniProt Q99788); experiment: BRET-based arrestin 3 recruitment assay
T1 sequence (Q99788 1-373): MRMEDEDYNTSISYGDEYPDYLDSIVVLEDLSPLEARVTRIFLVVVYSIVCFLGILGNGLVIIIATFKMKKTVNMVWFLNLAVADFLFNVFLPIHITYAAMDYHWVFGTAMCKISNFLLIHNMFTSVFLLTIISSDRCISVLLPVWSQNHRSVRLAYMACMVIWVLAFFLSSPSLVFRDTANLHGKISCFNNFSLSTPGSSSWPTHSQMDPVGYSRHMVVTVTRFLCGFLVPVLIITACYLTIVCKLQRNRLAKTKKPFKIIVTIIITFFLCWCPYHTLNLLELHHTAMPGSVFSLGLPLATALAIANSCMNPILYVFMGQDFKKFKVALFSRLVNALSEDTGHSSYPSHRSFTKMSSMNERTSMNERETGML

SMILES	time completely stable in blood plasma [1]	arrestin 3 recruitment to the CMKLR1 (in words) (CMKLR1; compared with chemerin-9)	arrestin 3 recruitment to the CMKLR1 (in words) (CMKLR1; compared with chemerin-9, listed as $$20)
C[C@@H]1NC(=O)[C@H](Cc2ccccc2)NC(=O)[C@H](CCC(N)=O)NC(=O)[C@H](NC(=O)[C@@H]2CCCN2C(=O)[C@H](Cc2ccccc2)NC(=O)[C@H](Cc2ccc(O)cc2)NC(=O)CCOCCOCCOCCOCCNC(=O)c2ccc(C(=O)[O-])c(-c3c4ccc(=[N+](C)C)cc-4oc4cc(N(C)C)ccc34)c2)CCSSC[C@@H](C(=O)O)NC(=O)[C@H](Cc2c[nH]c3ccccc23)NC1=O [$$ 19, Tam-EG4-[x4,W8,C9]-chemerin-9] ({X1-PEG4}-YFP[d(hCys)]QFAWC-OH; disulfide 4-9)	at least 48 h	–	–
CC(=O)NCC(=O)N[C@@H](Cc1ccccc1)C(=O)N[C@@H](CC(C)C)C(=O)NCC(=O)N[C@@H](Cc1ccc(O)cc1)C(=O)N[C@@H](Cc1ccccc1)C(=O)N1CCC[C@H]1C(=O)N[C@@H]1CCSSC[C@@H](C(=O)O)NC(=O)[C@H](Cc2ccccc2)NC(=O)[C@H](C)NC(=O)[C@H](Cc2ccccc2)NC(=O)[C@H](CCC(N)=O)NC1=O [$$ 20, GFLG-[x4,C9]-chemerin-9] (Ac-GFLGYFP[d(hCys)]QFAFC-OH; disulfide 8-13)	–	no impact	accepted
C[C@@H]1NC(=O)[C@H](Cc2ccccc2)NC(=O)[C@H](CCC(N)=O)NC(=O)[C@H](NC(=O)[C@@H]2CCCN2C(=O)[C@H](Cc2ccccc2)NC(=O)[C@H](Cc2ccc(O)cc2)NC(=O)CCOCCOCCOCCOCCNC(=O)c2ccc(C(=O)[O-])c(-c3c4ccc(=[N+](C)C)cc-4oc4cc(N(C)C)ccc34)c2)CCSSC[C@@H](C(=O)O)NC(=O)[C@H](Cc2ccccc2)NC1=O [$$ 17, Tam-EG4-[x4,C9]-chemerin-9] ({X1-PEG4}-YFP[d(hCys)]QFAFC-OH; disulfide 4-9)	at least 48 h	–	–
